Measured values taken from the supplement of paper PMC3334620.
In all, about 33,000 sequences were measured (“E-score (-0.5 to 0.5)”: median about -8e-05, highest 2% from about 0.23 on). The list shows a part of the results.

Target: T1, Nrg2 (UniProt P38082)
T1 sequence: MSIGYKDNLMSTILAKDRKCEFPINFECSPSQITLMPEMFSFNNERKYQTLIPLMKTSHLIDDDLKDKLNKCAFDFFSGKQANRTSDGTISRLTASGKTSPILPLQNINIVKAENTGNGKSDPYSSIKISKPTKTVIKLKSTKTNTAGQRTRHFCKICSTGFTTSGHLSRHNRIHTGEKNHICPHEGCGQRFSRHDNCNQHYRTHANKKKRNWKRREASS
Experiment: PBM E-score (8-mer binding enrichment) (E-score (-0.5 to 0.5)); higher = stronger / more preferred TF binding
Conditions: protein concentration: 100 nM; construct: GST-full length
Procedure, shortened: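 PURExpress in vitro transcription/translation supplied GST-tagged yeast transcription factors, either full-length or DNA-binding domain. Applied at about 100-200 nM to universal all-10-mer Agilent arrays double-stranded by primer extension, the bound protein was detected with fluorescent anti-GST. E-scores, modified Wilcoxon-Mann-Whitney statistics, were given by the Universal PBM Analysis Suite to ungapped eight-base words pooled with their reverse complements after masliner normalisation.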

Sequence | PBM E-score
CAAATTCG | 0.186
GCAGAACC | -0.0284
CCATCACG | -0.0736
AGACTTGG | -0.191
ACACGACC | 0.00695
GTAGTGCA | 0.138
CTGTCAAC | 0.122
GAACTGTA | 0.0377
CTGCTCAC | -0.063
CAAATAGG | -0.0634
GGCATCAA | -0.153
CAGTTTAG | -0.0391
CGGGATGA | -0.0542
CAAACCTC | -0.04
CGTCCTGA | -0.00684
CCCTCGTC | -0.033
CTCAAAAC | 0.0822
GAATCTTA | 0.171
ATAAGTGC | -0.0559
CAAAACCA | 0.249
GTCTCAAA | -0.12
AAAACCTG | -0.073
GATTCACA | -0.00093
GTAGGGAA | 0.0208
GTGGCTGA | -0.033

Sequence | PBM E-score
ACAGCTTC | -0.102
GTCTTACA | -0.142
CAAACACC | -0.0668
ATTCCGGC | -0.0149
CAATCTGC | 0.00635
GATGAGTA | 0.136
CAGCGTCC | -0.133
CTCTAAGA | -0.0998
GACTCAAA | -0.107
CCTGCCCC | -0.17
CCACTTAG | -0.0844
AACGCTCA | -0.127
CTATTATC | 0.102
AATGATCA | 0.13
GCATTCGC | -0.2
TGAGTCAA | 0.0756
AGCCAGCA | -0.0709
CTCGTGTC | -0.0953
CTACTTTA | 0.0465
AACGGTAC | 0.15
AATTATGC | 0.074
GCCTCAGC | -0.146
CCGCCCGG | -0.003
GAGCAGTA | 0.136
CATCTATA | 0.0737

Sequence | PBM E-score
ATTAAGCC | -0.0328
CTCTGAAA | -0.0416
AGCGACCA | -0.0183
ACTAGGAA | -0.094
ATCTCCCG | -0.0239
CGTTAGTC | -0.0998
AATTAGGT | 0.032
CGGACGTA | -0.0723
GCAAATGC | 0.0341
ATCGAATC | 0.09
CCGCCGAC | 0.0053
ATAGCTAA | 0.0739
ATGGCTAA | -0.0494
AAACGCGG | 0.178
GTTCACGA | 0.0077
GGATGTAC | -0.0199
AAGATTCT | -0.106
CAGTTCTA | -0.183
CTCTACAG | -0.101
CATCCTCA | -0.106
AATTCCAG | 0.0701
AATTTAAG | -0.0478
CAGTGATA | 0.0771
CAGTACAA | -0.0239
AAAAGCTT | -0.147

Sequence | PBM E-score
ACATGTCC | 0.0495
AATCTCAC | -0.0783
GTACGGGA | -0.143
ATTTCAAG | -0.039
GGCAGTAC | -0.0158
CCATTGGG | -0.146
GCGCATCC | 0.00271
GTATACAA | 0.144
GCCGGTAC | -0.241
AAGAGAGA | -0.224
ATCTATGG | -0.0899
AATGGGTG | 0.0747
GGGGAGTA | -0.0352
ATACTTGG | 0.0452
ACGAGACA | -0.0105
AAAGGCCG | -0.174
GTGTCAAA | 0.0139
ATTCACTC | -0.00107
AAAACCAA | -0.0245
CCTACGTC | -0.175
ATGAATTA | 0.0776
CATTAACC | 0.0762
ATCAGTCG | 0.0523
ACTGTTCT | 0.114
CATTCCCG | 0.0875

Shown as labelled records: part of the list above.
AAAGGCCG
  PBM E-score: -0.174
GTGTCAAA
  PBM E-score: 0.0139
ATTCACTC
  PBM E-score: -0.00107
AAAACCAA
  PBM E-score: -0.0245

Next records follow.

Sequence | PBM E-score
GCGAAAGA | 0.00991
AGCGAAAT | 0.0986
GAATACAA | 0.107
CGTTGCGC | -0.0131
GACAAAAA | 0.0692
CGAAGGTC | -0.132
ATCGGGGG | -0.328
ATTGGCTC | -0.0548
ACGCCCTC | -0.0422
CTAGTTCC | 0.0978
CTCCAAAC | 0.00209
CTCACCTA | -0.114
CACGTTTA | -0.137
GTGAACCA | 0.0356
TACTCCTA | -0.133
GGTGTGCA | -0.253
CCAGGTGC | 0.0275
AGGTCCCA | -0.0402
AGTAGGTC | -0.219
AGTAGGAA | -0.0957
CGGGGGAA | -0.158
CAGGTCCG | -0.00878
ACCTAGAC | -0.127
CCGGTCCA | -0.254
AGCTTAGG | -0.0232

Rewritten comma-delimited: entries from further up.
Sequence,PBM E-score
CGAAGGTC,-0.132
ATTGGCTC,-0.0548
AGTAGGTC,-0.219

Next records follow.

Sequence | PBM E-score
AGATCACG | -0.0131
GACAGTTA | 0.035
AGAACTGC | -0.133
TCCGCGAA | 0.0271
ATCACGAA | 0.061
TCACTAAA | 0.099
AGCACAGG | 0.0239
CGACTAAA | -0.00871
AAATAAAG | 0.0565
AAGACAGG | 0.0155
ACCTCGAT | 0.147
CTTTATGA | 0.00015
GAGAGTCC | -0.152
AAAAGCGG | -0.12
CCGCGAAG | 0.106
AATTGTAG | 0.0513
CGACGCCA | -0.0323
AGTGTCCA | 0.0617
GCACTTAA | -0.00289
GCCGAATA | -0.0388
AAACGGAT | 0.205
ACCTGACT | 0.148
CTTTCAAA | 0.193
CCGTCTAC | -0.0453
ATTGCTCG | -0.0158

Sequence | PBM E-score
CCGAGGCA | -0.107
CACGCCTC | -0.127
AGGACCCA | -0.179
GGCTACGA | -0.0831
ACGCAGTC | -0.242
AATTGGAC | 0.193
CCATGCGC | 0.125
AATGTACA | 0.105
CCTAGTAA | -0.0585
CATCATCC | 0.0396
GGTGCACC | 0.0727
CAGAATCA | 0.209
AACTATAG | -0.00956
CTCGACCA | -0.16
CTTTCTGC | 0.0856
GTTCTTAA | 0.0272
CATCGGTA | -0.208
CTTAATCC | 0.0573
GGGGTGAA | -0.123
GCAGTCCC | -0.111
ACGTACAT | 0.0502
ATTGGTGG | 0.0468
